Test results: US20040067222A1, “Regulation of glucocorticoid concentration” (priority 2001, published 2004)
At least one structure is not confirmed: it was looked up by name or label, or the drawing left a doubt.

Test system: macrophages
Assay: Phagocytosis of apoptotic neutrophils by macrophages in vitro (FIG. 1)
Format: cell-based
Settings: 200 nM dexamethasone; 30 mins interaction at 37° C

C[C@@H]1C[C@H]2[C@@H]3CCC4=CC(=O)C=C[C@]4(C)[C@@]3(F)[C@@H](O)C[C@]2(C)[C@@]1(O)C(=O)CO [dexamethasone]
uptake of apoptotic neutrophils by macrophages: marked increase
